# Test results published in PubChem BioAssay AID540276 (National Center for Advancing Translational Sciences (NCATS), 2011).
# Where “and” joins values, the source holds several entries; their conditions need not be identical. Equal entries are not always repeated. Screen size: about 300,000 compounds; about 5,400 (1.8%) were called active. Inconclusive results, whose numbers are uncertain, are shown with a selection of clear calls. The call rests on the fitted dose curve; tested in HEK293 cells. Where the call is inconclusive, the potency comes from a doubtful curve fit.
# Test: qHTS for inhibitors of binding or entry into cells for Marburg Virus
# Settings: Marburg virus pseudotyped entry inhibition, cell reporter; series mostly up to 37.8 µM
# Potency means the concentration at half of the fitted maximal effect.
row,Structure (SMILES),Potency
1,Cc1ccc(C)c(OCCC(=O)OCc2csc(CC(=O)Nc3ccccc3C)n2)c1,inactive
2,CCOC(=O)C1=C(COC(=O)[C@@H](NC(=O)c2cccc(C)c2)C(C)C)NC(=O)NC1C (stereo partly specified),inactive
3,CCC(=O)NCCc1nc2ccccc2n1Cc1ccc(C)cc1,"inconclusive: 6.51 µM [inhibitor, single point]"
4,Nc1c(-c2cccc(Cl)c2)cnn1-c1ccccc1,inactive
5,CN1CCc2c(cc(O)c(O)c2Cl)[C@H](c2cccc(Cl)c2)C1,"inconclusive: 0.282 µM [inhibitor, full curve, poor fit]"
6,CC[C@@H](C)[C@H](NC(=O)OC(C)(C)C)c1nnc(S(=O)(=O)Cc2cc(C)ccc2C)o1,"inconclusive: 10 µM [inhibitor, partial curve, poor fit]"
7,CCCCOC(=O)c1ccc(NC(=O)Cn2nnc3sc4c(c3c2=O)CCCC4)cc1,"inconclusive: 35.5 µM [inhibitor, single point]"
8,O=C(/C=C/c1cccc(Br)c1)N1CCN(c2cccc(C(F)(F)F)c2)CC1,"inconclusive: 3.55 µM [inhibitor, single point]"
9,CCc1cc(C(=O)Nc2cc(Cl)ccc2N2CCN(C)CC2)sc1C,inactive
10,O=C(O)CCCCCn1c(SCc2cc(=O)n3cc(Cl)ccc3n2)nc2ccsc2c1=O,inactive
11,Cc1csc(NC(=O)CSc2ncnc3ccccc23)n1,inactive
12,CCOc1ccccc1N1CCN(C(=O)c2cccc(-c3ccc(O)cc3)c2)CC1,"inconclusive: 3.55 µM [inhibitor, full curve, poor fit]"
13,CCn1c2ccccc2c2cc(/C=N/n3cnnc3)ccc21,"inconclusive: 6.51 µM [inhibitor, full curve]"
14,Fc1cccc(C2NN=C(c3ccccc3)S2)c1 (stereo unspecified),"inconclusive: 35.5 µM [inhibitor, single point]"
15,Cc1cc(C)nc(NC(=O)c2c(-c3c(Cl)cccc3Cl)noc2C)n1,inactive
16,C/C(=C\C(=O)C(F)(F)F)Nc1ccc(C)cc1,"inconclusive: 0.316 µM [activator, partial curve, poor fit]"
17,CCN(CC)c1ccc([C@H]2[C@@H]3CCCC[C@]3(O)CCN2CC(=O)NCc2ccco2)cc1,"inconclusive: 35.5 µM [inhibitor, single point]"
18,CC(OC(=O)c1cccc(NS(C)(=O)=O)c1)C(=O)Nc1ccc(N2CCOCC2)cc1 (stereo unspecified),inactive
19,C=CC[n+]1c(-c2ccccc2)csc1NC(C)(C)C,"inconclusive: 5.62 µM [inhibitor, single point]"
20,O=C(OCCOc1cccc(Cl)c1)c1cc(S(=O)(=O)N2CCCCC2)ccc1N1CCOCC1,"inconclusive: 11.2 µM [inhibitor, partial curve, poor fit]"
21,Cc1ccc(NC(=S)N(CCN(C)C)Cc2cccs2)cc1,"inconclusive: 20 µM [inhibitor, partial curve, poor fit]"
22,O=C(Cc1cc(=O)[nH][nH]1)N/N=C/c1cccc(Cl)c1Cl,"inconclusive: 3.98 µM [activator, full curve, poor fit]"
23,C[C@]12CCC(=O)C=C1C=CC1C2CC[C@]2(C)C(=O)CCC12 (stereo partly specified),inactive
24,Cc1ccc2nc(-c3ccccc3)cc(C(=O)Nc3cccnc3)c2c1,inactive

# In the list so far, 3 have two or more sulfur atoms:
row,Structure (SMILES),Potency
10,O=C(O)CCCCCn1c(SCc2cc(=O)n3cc(Cl)ccc3n2)nc2ccsc2c1=O,inactive
11,Cc1csc(NC(=O)CSc2ncnc3ccccc23)n1,inactive
21,Cc1ccc(NC(=S)N(CCN(C)C)Cc2cccs2)cc1,"inconclusive: 20 µM [inhibitor, partial curve, poor fit]"

# Continued:

row,Structure (SMILES),Potency
1,O=C(Nc1ccc(OC(=O)c2ccccc2)c(-c2nc3ccccc3s2)c1)c1ccccc1,inactive
2,COc1ccc(-n2c(N)c(-c3nc4ccccc4n3C)sc2=S)cc1,"inconclusive: 6.31 µM [inhibitor, single point]"
3,CC1CC(C)CN(CCC(=O)Nc2cccc(Cl)c2)C1 (stereo unspecified),"inconclusive: 18.3 µM [inhibitor, partial curve, poor fit]"
4,Fc1ccc(C(OCCN2CCN(CCCc3ccccc3)CC2)c2ccc(F)cc2)cc1,active: 7.08 µM
5,CN(C)CCNC(=O)Nc1ccc(F)cc1F,"inconclusive: 11.2 µM [activator, partial curve]"
6,COc1ccc(N(CC(=O)NN=C2CCN(C)CC2)S(=O)(=O)c2ccccc2)c(OC)c1,inactive
7,CCc1cccc(NC(=O)C2CCCN(S(=O)(=O)c3cccs3)C2)c1 (stereo unspecified),"inconclusive: 11.2 µM [inhibitor, partial curve] and inconclusive: 35.5 µM [inhibitor, partial curve, poor fit]"
8,O=C1NC(=S)NC1(c1ccccc1)c1ccccc1,inactive
9,CC(C)(C)c1ccc(OCCn2cc(C(=O)c3ccco3)c3ccccc32)cc1,"inconclusive: 35.5 µM [inhibitor, single point]"
10,Cc1ccc(C(=O)NCC2CCCO2)cc1[N+](=O)[O-] (stereo unspecified),"inconclusive: 0.501 µM [activator, full curve, poor fit]"
11,CCOC(=O)C1=C(CN2CCCCC2)NC(=O)NC1c1cc(C)ccc1C (stereo unspecified),active: 9.2 µM
12,O=C(CSc1ccc(-c2ccc(F)cc2)nn1)NCc1ccco1,"inconclusive: 5.17 µM [inhibitor, partial curve, poor fit]"
13,CCn1cc(C(=O)N2CCN(c3ccc(F)cc3)CC2)c(=O)c2cc(S(=O)(=O)N(C)C3CCCCC3)ccc21,"inconclusive: 35.5 µM [activator, single point]"
14,COc1ccc(N2CC(C(=O)OCC(=O)Nc3cc(C)on3)CC2=O)cc1 (stereo unspecified),inactive
15,N[C@@H](CCl)C(=O)O,"inconclusive: 0.891 µM [activator, full curve, poor fit]"
16,O=C(NC1CC1)c1ccc(-n2cccc2)cc1,"inconclusive: 11.2 µM [activator, partial curve, poor fit]"
17,COc1ccc(CCNC(=O)CCN2C(=O)C(C)Oc3ccc(C)cc32)cc1OC (stereo unspecified),"inconclusive: 0.164 µM [inhibitor, full curve, poor fit]"
18,Cc1ccc(CSCC(=O)Nc2ccc(N3CCOCC3)cc2N2CCOCC2)cc1,"inconclusive: 3.98 µM [inhibitor, full curve]"
19,COC(=O)C1=CN(c2cc(C)cc(C)c2)C=C(C(=O)OC)C1c1cccc(F)c1,inactive
20,Cc1cnc(NC(=O)c2ccc3ncsc3c2)s1,"inconclusive: 35.5 µM [inhibitor, single point]"
21,CC(N)=O,"inconclusive: 29.1 µM [activator, single point]"
22,O=C1CCN2C=Nc3cccc4ccc1c2c34,"inconclusive: 2.82 µM [activator, partial curve, poor fit]"
23,Cc1ccc2nc3sc(C(=O)NCc4ccco4)c(N)c3cc2c1,inactive
24,CC(=O)Nc1ccc(NS(=O)(=O)c2ccc3c(c2)NC(=O)CC(=O)N3)cc1,"inconclusive: 31.6 µM [activator, single point]"

row,Structure (SMILES),Potency
1,CCCOc1ccc(CSCCNC(=S)Nc2ccccc2)cc1,"inconclusive: 22.4 µM [inhibitor, single point]"
2,O=C(NC1(C(F)(F)F)Oc2ccc(Cl)cc2O1)N1CCC2(CC1)OCCO2 (stereo unspecified),"inconclusive: 29.1 µM [inhibitor, single point]"
3,CN=c1sc2c(n1C)C(=O)c1ccccc1C2=O,"inconclusive: 14.1 µM [inhibitor, single point]"
4,Cn1cnc([N+](=O)[O-])c1Sc1nc(N)nc2c1ncn2C1OC(CO)C(O)C1O (stereo unspecified),"inconclusive: 1.58 µM [inhibitor, full curve]"
5,Cc1cc(=O)[nH]c2c(C)cc(S(=O)(=O)NCc3ccccc3)cc12,inactive
6,CCCC1C(C#N)=C(N)Oc2n[nH]c(C(C)(C)C)c21 (stereo unspecified),"inconclusive: 2.82 µM [activator, single point]"
7,O=C(CN1CCCCCC1)N/N=C/c1cccc(Cl)c1,"inconclusive: 0.112 µM [activator, full curve, poor fit]"
8,COc1ccc(Cl)cc1C(=O)NNC(=S)NC1CCCC1,"inconclusive: 3.16 µM [activator, partial curve, poor fit]"
9,COCCCNCCOCCOc1ccc(Cl)cc1C(C)(C)C,active: 5.8 µM
10,CSc1ccc(C(=O)C2CCCN(Cc3cccnc3)C2)cc1 (stereo unspecified),inactive
11,CCOC(=O)c1c(N)sc(-c2ccccc2)c1C,inactive
12,Brc1ccc(CN2CCN(Cc3c[nH]c4ccccc34)CC2)cc1,"inconclusive: 35.5 µM [inhibitor, single point]"
13,CCC(=O)NCCc1nc2cc(NC(=O)c3ccco3)ccc2n1C,"inconclusive: 5.01 µM [activator, single point]"
14,COc1ccc(Cn2cc(C(=O)c3ccc(C)cc3)c(=O)c3cc(OC)c(OC)cc32)cc1,"inconclusive: 7.94 µM [inhibitor, partial curve, poor fit]"
15,Cc1oc(-c2cccc(Cl)c2)nc1CN1CCC(C(=O)NCCCN2CCN(c3ccc(F)cc3)CC2)CC1,"inconclusive: 3.98 µM [inhibitor, single point]"
16,CC(=O)Nc1ccc(N2CCCCC2)cc1,inactive
17,CCCCn1c(N)c(N(CCOC)C(=O)C2CCN(C(=O)c3ccc(Cl)cc3)CC2)c(=O)[nH]c1=O,inactive
18,COc1cc(-c2cc(=O)c3c(C)cc(O)cc3o2)cc(OC)c1OC,inactive
19,COC(=O)c1cc(NCc2c(F)cccc2Cl)ccc1N1CCOCC1,inactive
20,O=C(NC1CCS(=O)(=O)C1)c1cccc(S(=O)(=O)N2CCCCC2)c1 (stereo unspecified),inactive
21,COC(=O)CN1C(=O)C(C)=C(c2ccc(C)cc2)S1(=O)=O,inactive
22,COc1ccc2cc3cc(C(=O)NCCCN4CCc5ccccc5C4)sc3nc2c1,"inconclusive: 10.3 µM [activator, partial curve, poor fit]"
23,Cc1c2c(nc3c(C(=O)NC4CC4)cnn13)CCCC2,"inconclusive: 9.2 µM [activator, single point]"
